Reference: patent publication US7074797B2, “Pyrazolopyrimidines as CRF receptor antagonists” (Neurocrine Biosciences, Inc., priority 1996, dated 2006)
Some entries share one result that the patent states for a list of compounds.

Molecular target: T1, human CRF receptors (Homo sapiens, UniProt P34998)
T1 construct: expressed in transfected cells
T1 sequence (P34998 24-415): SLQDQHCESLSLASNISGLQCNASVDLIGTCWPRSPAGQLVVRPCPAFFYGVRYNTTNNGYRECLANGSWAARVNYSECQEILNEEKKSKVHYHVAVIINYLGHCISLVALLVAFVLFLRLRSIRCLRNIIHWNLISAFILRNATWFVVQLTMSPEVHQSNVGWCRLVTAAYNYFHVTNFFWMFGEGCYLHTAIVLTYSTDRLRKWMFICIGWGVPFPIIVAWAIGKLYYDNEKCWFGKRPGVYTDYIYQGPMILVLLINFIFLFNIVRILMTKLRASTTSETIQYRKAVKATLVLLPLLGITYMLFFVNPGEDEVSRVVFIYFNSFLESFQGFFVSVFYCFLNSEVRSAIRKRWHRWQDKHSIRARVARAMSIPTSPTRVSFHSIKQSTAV
Assay: CRF receptor radioligand binding assay ([125I]tyrosine-ovine CRF displacement)
Conditions: cells stably transfected with human CRF receptors; 2 hours at 22° C.

SMILES	Ki [nM]
CCCCN(CC)c1cc(C)nc2c(-c3ccc(N(C)C)nc3C)c(C)nn12 [Compound 92]	≤ 250
CCCCN(CC)c1cc(C)nc2c(-c3cnc(N(C)C)cc3C)c(C)nn12 [Compound 81]	≤ 250
Cc1cc(N[C@H](CO)CC(C)C)n2nc(C)c(-c3ccc(Cl)cc3)c2n1 [Compound 79]	≤ 250
CCCN(CCC)c1cc(C)nc2c(-c3ncc(C)cc3N(C)C)c(C)nn12 [Compound 113]	≤ 250
CCCCN(CC)c1cc(C)nc2c(-c3c(OC)cc(OC)cc3OC)cnn12 [Compound 71]	≤ 250
CCCCC(CO)Nc1cc(C)nc2c(-c3ccc(Cl)cc3)c(C)nn12 (stereo not drawn) [Compound 76]	≤ 250
CCCN(CCC)c1cc(C)nc2c(-c3cnc(C)cc3C)c(C)nn12 [Compound 94]	≤ 250
CCCN(CC1CC1)c1cc(C)nc2c(-c3ncc(Cl)cc3Cl)c(C)nn12 [Compound 105]	≤ 250
CCCCN(CC)c1cc(C)nc2c(-c3ccc(Cl)cc3Cl)cnn12 [Compound 15]	≤ 250
CCCN(CCC)c1cc(C)nc2c(-c3ccc(Cl)cc3Cl)cnn12 [Compound 16]	≤ 250
CCCN(CCC)c1cc(C)nc2c(-c3ncc(NC)cc3C)c(C)nn12 [Compound 121]	≤ 250
CCCC(CO)Nc1cc(C)nc2c(-c3ccc(Cl)cc3Cl)cnn12 (stereo not drawn) [Compound 61]	≤ 250
CCCN(CC1CC1)c1cc(C)nc2c(-c3cnc(C)cc3C)c(C)nn12 [Compound 95]	≤ 250
CCCCN(CC1CC1)c1cc(C)nc2c(-c3ccc(Cl)cc3Cl)c(SC)nn12 [Compound 41, 2-methylthio-3-(2,4-dichlorophenyl)-5-methyl-7-(N-butyl-N-cyclopropanemethyl-amino)pyrazolo[2,3-a]pyrimidine]	≤ 250
CCCN(CC1CC1)c1cc(C)nc2c(-c3c(C)cc(N(C)C)nc3C)c(C)nn12 [Compound 97]	≤ 250
CCCCN(C)c1cc(C)nc2c(-c3cnc(N(C)C)cc3C)c(C)nn12 [Compound 89]	≤ 250
CCCN(CCC)c1cc(C)nc2c(-c3cnc(N(CC)CC)cc3C)c(C)nn12 [Compound 33]	≤ 250
CCN(CC)c1cc(C)nc2c(-c3ccc(Cl)cc3Cl)c(SC)nn12 [Compound 36]	≤ 250
CCCN(CCOC)c1cc(C)nc2c(-c3ccc(Cl)cc3Cl)cnn12 [Compound 19]	≤ 250
COCCN(CCOC)c1cc(C)nc2c(-c3ccc(Cl)cc3)c(C)nn12 [Compound 74]	≤ 250
COCCN(CCOC)c1cc(C)nc2c(-c3ccc(Cl)cc3Cl)cnn12 [Compound 58]	≤ 250
CSc1nn2c(N(C(C)C)C(C)C)cc(C)nc2c1-c1ccc(Cl)cc1Cl [Compound 39]	≤ 250
CCCN(CC1CC1)c1cc(C)nc2c(-c3ccc(Cl)cc3Cl)c(SC)nn12 [Compound 38, 2-methylthio-3-(2,4-dichlorophenyl)-5-methyl-7-(N-propyl-N-cyclopropanemethyl-amino)pyrazolo[2,3-a]pyrimidine]	≤ 250
CCCN(CCC)c1cc(C)nc2c(-c3ncc(C)cc3N)c(C)nn12 [Compound 110]	≤ 250
CCCCN(CCCC)c1cc(C)nc2c(-c3ccc(Cl)cc3Cl)c(SC)nn12 [Compound 40]	≤ 250

SMILES	Ki [nM]
CCCN(CC1CC1)c1cc(C)nc2c(-c3ccc(C(C)C)cc3)c(C)nn12 [Compound 115]	≤ 250
CCC(CC)Nc1cc(C)nc2c(-c3cnc(N(C)C)cc3C)c(C)nn12 [Compound 86]	≤ 250
CSCCNc1cc(C)nc2c(-c3ccc(Cl)cc3)c(C)nn12 [Compound 78]	≤ 250
CCCCN(CC)c1cc(C)nc2c(-c3c(C)cc(N(C)C)nc3C)cnn12 [Compound 63]	≤ 250
C=CCN(CC=C)c1cc(C)nc2c(-c3cnc(N(C)C)cc3C)c(C)nn12 [Compound 84]	≤ 250
Cc1cc(N(CCO)Cc2ccccc2)n2nc(C)c(-c3ccc(Cl)cc3)c2n1 [Compound 75]	≤ 250
CCCCN(CCCC)c1cc(C)nc2c(-c3ccc(N(C)C)nc3C)c(C)nn12 [Compound 93]	≤ 250
CCCN(CC1CC1)c1cc(C)nc2c(-c3cccc(OC)c3)c(C)nn12 [Compound 127]	≤ 250
CCCN(CC1CC1)c1cc(C)nc2c(-c3c(C)cc(N(C)C)nc3C)cnn12 [Compound 64]	≤ 250
Cc1cc(N(CCO)Cc2ccccc2)n2ncc(-c3ccc(Cl)cc3Cl)c2n1 [Compound 26]	≤ 250
CCCN(CCC)c1cc(C)nc2c(-c3ccc(Cl)cn3)c(C)nn12 [Compound 54]	≤ 250
CCCN(CCOC)c1cc(C)nc2c(-c3ncc(Cl)cc3Cl)c(C)nn12 [Compound 104]	≤ 250
COC[C@H]1CCCN1c1cc(C)nc2c(-c3ccc(Cl)cc3)c(C)nn12 [Compound 128]	≤ 250
CCC(CC)Nc1cc(C)nc2c(-c3ccc(Cl)cc3Cl)cnn12 [Compound 5]	≤ 250
CCCN(CC1CC1)c1cc(C)nc2c(-c3cnc(N(C)C)cc3C)c(C)nn12 [Compound 82]	≤ 250
CCCN(CC1CC1)c1cc(C)nc2c(-c3ccc(OC)cc3OC)cnn12 [Compound 67]	≤ 250
CCCN(CCC)c1cc(C)nc2c(-c3ccc(Cl)cc3Cl)c(SC)nn12 [Compound 37]	≤ 250
CCN(CC)c1cc(C)nc2c(-c3c(OC)cc(OC)cc3OC)cnn12 [Compound 72]	≤ 250
CCCN(CC(C)O)c1cc(C)nc2c(-c3ccc(OC)cc3OC)c(C)nn12 (stereo not drawn) [Compound 124]	≤ 250
CCCN(CCOC)c1cc(C)nc2c(-c3c(OC)cc(OC)cc3OC)cnn12 [Compound 69]	≤ 250
CCCN(CCC)c1cc(C)nc2c(-c3c(OC)cc(OC)cc3OC)cnn12 [Compound 68]	≤ 250
Cc1cc(NC(C)C)n2nc(C)c(-c3cnc(N(C)C)cc3C)c2n1 [Compound 87]	≤ 250
C=CCN(CC=C)c1cc(C)nc2c(-c3ccc(Cl)cc3Cl)c(SC)nn12 [Compound 42, 2-methylthio-3-(2,4-dichlorophenyl)-5-methyl-7-(N,N-diallylamino)-pyrazolo[2,3-a]pyrimidine]	≤ 250
CCCN(CCC)c1cc(C)nc2c(-c3c(C)cc(N(C)C)nc3C)c(C)nn12 [Compound 96]	≤ 250
CCCN(CCC)c1cc(C)nc2c(-c3ncc(C)cc3[N+](=O)[O-])c(C)nn12 [Compound 109]	≤ 250

SMILES	Ki [nM]
CCCC(CO)Nc1cc(C)nc2c(-c3ccc(Cl)cc3)c(C)nn12 (stereo not drawn) [Compound 77]	≤ 250
CCCN(CC1CC1)c1cc(C)nc2c(-c3ccc(N(C)C)nc3C)c(C)nn12 [Compound 91]	≤ 250
CCCN(CCC)c1cc(C)nc2c(-c3ncc(N(CC)CC)cc3C)c(C)nn12 [Compound 107]	≤ 250
Cc1cc(N[C@@H](CO)CC(C)C)n2ncc(-c3ccc(Cl)cc3Cl)c2n1 [Compound 12]	≤ 250
CCCN(CCC)c1cc(C)nc2c(-c3ncc(F)cc3C)c(C)nn12 [Compound 100]	≤ 250
CCCN(Cc1ccccc1)c1cc(C)nc2c(-c3cnc(N(C)C)cc3C)c(C)nn12 [Compound 83]	≤ 250
CCCN(CC1CC1)c1cc(C)nc2c(-c3ccc(Cl)cc3Cl)c([S+](C)[O-])nn12 (stereo not drawn) [Compound 43]	≤ 250
CCCN(CCC)c1cc(C)nc2c(-c3ncc(Cl)cc3C)c(C)nn12 [Compound 98]	≤ 250
C=CCN(CC1CC1)c1cc(C)nc2c(-c3ccc(Cl)cc3Cl)cnn12 [Compound 29, 3-(2,4-dichlorophenyl)-5-methyl-7-(N-allyl-N-cyclopropanemethylamino)-pyrazolo[2,3-a]pyrimidine]	≤ 250
CCCN(CCC)c1cc(C)nc2c(-c3ncc(N4CCCCC4)cc3C)c(C)nn12 [Compound 108]	≤ 250
CCC1CCCCN1c1cc(C)nc2c(-c3cnc(N(C)C)cc3C)c(C)nn12 (stereo not drawn) [Compound 130]	≤ 250
CC(=O)OCCN(Cc1ccccc1)c1cc(C)nc2c(-c3ccc(Cl)cc3Cl)cnn12 [Compound 27, 3-(2,4-dichloro-phenyl)-5-methyl-7-[N-(2-acetoxyethyl)-N-benzylamino]-pyrazolo[2,3-a]-pyrimidine]	≤ 250
CCCN(CCC)c1cc(C)nc2c(-c3ccc(N(C)C)nc3C)c(C)nn12 [Compound 90]	≤ 250
CCC1CCCCN1c1cc(C)nc2c(-c3ccc(Cl)cc3)c(C)nn12 (stereo not drawn) [Compound 129]	≤ 250
CCCN(CCC)c1cc(C)nc2c(-c3ccc(OC)c(OC)c3)c(CC)nn12 [Compound 73]	≤ 250
CCCN(CC1CC1)c1cc(C)nc2c(-c3ccc(Cl)cc3Cl)cnn12 [Compound 17, 3-(2,4-dichlorophenyl)-5-methyl-7-(N-propyl -N-cyclopropanemethylamino)-pyrazolo[2,3-a]pyrimidine]	≤ 250
Cc1cc(N(CC(C)C)CC2CC2)n2ncc(-c3ccc(Cl)cc3Cl)c2n1 [Compound 24]	≤ 250
CCCCC(CO)Nc1cc(C)nc2c(-c3cnc(N(C)C)cc3C)c(C)nn12 (stereo not drawn) [Compound 80]	≤ 250
CCCCN(CC1CC1)c1cc(C)nc2c(-c3ccc(Cl)cc3Cl)cnn12 [Compound 23]	≤ 250
CCCN(CC1CC1)c1cc(C)nc2c(-c3c(OC)cc(OC)cc3OC)cnn12 [Compound 70]	≤ 250
CCCCN(CCCC)c1cc(C)nc2c(-c3cnc(N(C)C)cc3C)c(C)nn12 [Compound 85]	≤ 250
CCCCC(CC)Nc1cc(C)nc2c(-c3ccc(Cl)cc3Cl)c(SC)nn12 (stereo not drawn) [Compound 32]	≤ 250
CCCN(CCC)c1cc(C)nc2c(-c3ccc(C)nc3)c(C)nn12 [Compound 114]	≤ 250
Cc1cc(NC(C)CC(C)C)n2nc(C)c(-c3cnc(N(C)C)cc3C)c2n1 (stereo not drawn) [Compound 88]	≤ 250
COCC(C)Nc1cc(C)nc2c(-c3ccc(Cl)cc3Cl)cnn12 (stereo not drawn) [Compound 59]	≤ 250
